Measured values from PubChem BioAssay AID248 (DTP/NCI, 2004).
The list shows only some results of the screen, not a fair sample: it gathers some chemical classes. Not every dose and run of a compound is shown. T/C gives the treated animals as a percentage of the vehicle group. Where survival is the endpoint, the PubChem record calls one and a half times the control and up active, and a quarter to a half above the control has no call in these data; cut-offs in other NCI protocols can differ. Schedules are NCI's codes, taken here to give the interval after Q, in days (D) or hours (H), and the number of doses after X. Some entries show no survivor count and are marked so; the dose need not have been tolerated. Some entries were tested several times; their values stand side by side, smallest first.

System: L1210 leukemia ip in BDF1 mice, survival T/C
Experiment: NCI In Vivo Anticancer Drug Screen. Data for tumor model L1210 Leukemia (intraperitoneal) in B6D2F1 (BDF1) mice
Settings: T/C endpoint: mean survival time, higher T/C = longer survival
[1] = dose: 0.2 mg/kg/injection, schedule: Q01DX009 (ip), vehicle: other
[2] = dose: 0.4 mg/kg/injection, schedule: Q01DX009 (ip), vehicle: other
[3] = dose: 0.8 mg/kg/injection, schedule: Q01DX009 (ip), vehicle: other
[4] = dose: 1.6 mg/kg/injection, schedule: Q01DX009 (ip), vehicle: other

C/C=C/C(=O)OC[C@]12CCC(C)=C[C@H]1O[C@@H]1[C@H](O)[C@@H](O)[C@@]2(C)[C@@]12CO2
T/C [1]: 127 % of control [survivor count not shown] | T/C [2]: 134 % of control [survivor count not shown] | T/C [3]: 150 % of control [survivor count not shown]

CC(=O)OC[C@]12CCC(C)=C[C@H]1O[C@@H]1[C@H](O)[C@@H](OC(=O)CCl)[C@@]2(C)[C@@]12CO2
T/C [3]: 179 % of control [survivor count not shown] | T/C (dose: 1.2 mg/kg/injection, schedule: Q01DX009 (ip), vehicle: other): 138 % of control [survivor count not shown] | T/C [4]: 94 % of control [survivor count not shown]

CC(=O)OC[C@]12C[C@H](OC(=O)CC(C)C)C(C)=C[C@H]1OC1[C@H](O)[C@@H](OC(C)=O)[C@@]2(C)[C@@]12CO2
T/C (dose: 0.4 mg/kg/injection, schedule: Q01DX009 (ip), vehicle: Klucel (hydroxypropylcellulose) (HPC)): 109 % of control [survivor count not shown] | T/C [2]: 138 % of control [survivor count not shown] | T/C (dose: 0.62 mg/kg/injection, schedule: Q01DX009 (ip), vehicle: Klucel (hydroxypropylcellulose) (HPC)): 112 [survivor count not shown], 115 [survivor count not shown], 145 % of control [survivor count not shown] | T/C (dose: 0.62 mg/kg/injection, schedule: Q01DX009 (ip), vehicle: other): 150 % of control [survivor count not shown] | T/C (dose: 0.93 mg/kg/injection, schedule: Q01DX009 (ip), vehicle: Klucel (hydroxypropylcellulose) (HPC)): 120 [survivor count not shown] and 121 % of control [survivor count not shown] | T/C (dose: 0.93 mg/kg/injection, schedule: Q01DX009 (ip), vehicle: other): 149 % of control [survivor count not shown] | T/C (dose: 1.25 mg/kg/injection, schedule: Q01DX001 (ip), vehicle: Klucel (hydroxypropylcellulose) (HPC)): 104 % of control [survivor count not shown] | T/C (dose: 1.25 mg/kg/injection, schedule: Q04DX003 (ip), vehicle: Klucel (hydroxypropylcellulose) (HPC)): 117 % of control [survivor count not shown] | T/C (dose: 1.39 mg/kg/injection, schedule: Q01DX009 (ip), vehicle: Klucel (hydroxypropylcellulose) (HPC)): 125 % of control [survivor count not shown] | T/C (dose: 2.5 mg/kg/injection, schedule: Q01DX001 (ip), vehicle: Klucel (hydroxypropylcellulose) (HPC)): 109 % of control [survivor count not shown] | T/C (dose: 5.0 mg/kg/injection, schedule: Q01DX001 (ip), vehicle: Klucel (hydroxypropylcellulose) (HPC)): 111 % of control [survivor count not shown]

CC(=O)OC[C@]12CCC(C)=C[C@H]1O[C@H]1C(=O)[C@@H](OC(C)=O)[C@@]2(C)[C@]12CO2
T/C (dose: 0.01 mg/kg/injection, schedule: Q01DX009 (ip), vehicle: other): 104 % of control [survivor count not shown] | T/C (dose: 0.02 mg/kg/injection, schedule: Q01DX009 (ip), vehicle: other): 114 % of control [survivor count not shown] | T/C (dose: 0.05 mg/kg/injection, schedule: Q01DX009 (ip), vehicle: other): 126 % of control [survivor count not shown] | T/C (dose: 0.1 mg/kg/injection, schedule: Q01DX009 (ip), vehicle: other): 138 % of control [survivor count not shown] | T/C [1]: 152 % of control [survivor count not shown] | T/C [2]: 164 % of control [survivor count not shown] | T/C [3]: 176 % of control [survivor count not shown] | T/C [4]: 149 % of control [survivor count not shown]

CC(=O)O[C@H]1C[C@@H]2OC3C=C(C)CCC3(C)[C@@]1(C)[C@@]21CO1 (some centres undefined)
T/C (dose: 30.0 mg/kg/injection, schedule: Q01DX015 (ip), vehicle: carboxymethylcellulose (CMC)): 102 % of control [survivor count not shown] | T/C (dose: 60.0 mg/kg/injection, schedule: Q01DX015 (ip), vehicle: carboxymethylcellulose (CMC)): 100 % of control [survivor count not shown] | T/C (dose: 120.0 mg/kg/injection, schedule: Q01DX015 (ip), vehicle: carboxymethylcellulose (CMC)): 97 % of control [survivor count not shown] | T/C (dose: 240.0 mg/kg/injection, schedule: Q01DX015 (ip), vehicle: carboxymethylcellulose (CMC)): 100 % of control [survivor count not shown]
